PubChem BioAssay AID504808, Drosophila RNAi Screening Center | 2011

- Assay: 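Fly genes required to hold E2F transcription in check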 (primary screen)
- Cell system: Drosophila S2 cells
- Reagent: long dsRNA against Drosophila genes
- Measurement: 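Dual luciferase plate measurements; E2F-specific signal taken as firefly over Renilla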
- Scale: E2F firefly: higher = more E2F reporter activity; Renilla normaliser: higher = more normaliser reporter signal
- Hit rule: 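a knock-down counted as active when the firefly/Renilla E2F signal rose above 50%, a threshold chosen arbitrarily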
The deposit covers about 21,000 reagents; below is a random part of those that have a named target and a result. In the full data, 18 (0.084%) are marked active. 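Raw counts without plate normalisation, one of two replicates; the ratio scores behind the calls were not deposited.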 Names joined by + are all predicted targets of the reagent. Not stated in the record: the amount of reagent, the time to read-out.

Blos4 [DRSC10151] → E2F firefly, rep 1: 82341; Renilla normaliser, rep 1: 5491; call: inactive
CG33290 [DRSC11493] → E2F firefly, rep 1: 95440; Renilla normaliser, rep 1: 3853; call: inactive
fuss [DRSC17200] → E2F firefly, rep 1: 1.14e5; Renilla normaliser, rep 1: 5950; call: inactive
CG11878 [DRSC14422] → E2F firefly, rep 1: 1.26e5; Renilla normaliser, rep 1: 6375; call: inactive
SRPK [DRSC07090] → E2F firefly, rep 1: 74827; Renilla normaliser, rep 1: 3648; call: inactive
Egfrap [DRSC09963] → E2F firefly, rep 1: 86721; Renilla normaliser, rep 1: 3878; call: inactive
Egfrap [DRSC09964] → E2F firefly, rep 1: 81031; Renilla normaliser, rep 1: 3614; call: inactive
dpr11 [DRSC12561] → E2F firefly, rep 1: 1.47e5; Renilla normaliser, rep 1: 6994; call: inactive
dpr11 [DRSC12562] → E2F firefly, rep 1: 1.45e5; Renilla normaliser, rep 1: 6434; call: inactive
dpr11 [DRSC12563] → E2F firefly, rep 1: 1.51e5; Renilla normaliser, rep 1: 6972; call: inactive
CG3631 [DRSC15503] → E2F firefly, rep 1: 78247; Renilla normaliser, rep 1: 3687; call: inactive

Continued; the last 4 above are carried over.
dpr11 [DRSC12561] → E2F firefly, rep 1: 1.47e5; Renilla normaliser, rep 1: 6994; call: inactive
dpr11 [DRSC12562] → E2F firefly, rep 1: 1.45e5; Renilla normaliser, rep 1: 6434; call: inactive
dpr11 [DRSC12563] → E2F firefly, rep 1: 1.51e5; Renilla normaliser, rep 1: 6972; call: inactive
CG3631 [DRSC15503] → E2F firefly, rep 1: 78247; Renilla normaliser, rep 1: 3687; call: inactive
Acp36DE [DRSC01860] → E2F firefly, rep 1: 95926; Renilla normaliser, rep 1: 4137; call: inactive
ZnT77C [DRSC11766] → E2F firefly, rep 1: 1.41e5; Renilla normaliser, rep 1: 6228; call: inactive
ZnT77C [DRSC11767] → E2F firefly, rep 1: 1.41e5; Renilla normaliser, rep 1: 6940; call: inactive
Mms19 [DRSC12188] → E2F firefly, rep 1: 75406; Renilla normaliser, rep 1: 3553; call: inactive
CG30037 [DRSC07305] → E2F firefly, rep 1: 1.12e5; Renilla normaliser, rep 1: 3800; call: inactive
CG11294 [DRSC17777] → E2F firefly, rep 1: 75613; Renilla normaliser, rep 1: 5308; call: inactive
CG11975 [DRSC14452] → E2F firefly, rep 1: 58509; Renilla normaliser, rep 1: 2681; call: inactive
CG11060 [DRSC06029] → E2F firefly, rep 1: 86353; Renilla normaliser, rep 1: 3697; call: inactive
Inx7 + cm [DRSC18753] → E2F firefly, rep 1: 7822; Renilla normaliser, rep 1: 772; call: inactive
whe [DRSC20537] → E2F firefly, rep 1: 1.45e5; Renilla normaliser, rep 1: 7074; call: inactive
CG14563 [DRSC11724] → E2F firefly, rep 1: 1.35e5; Renilla normaliser, rep 1: 6844; call: inactive
CG33267 [DRSC09120] → E2F firefly, rep 1: 1.22e5; Renilla normaliser, rep 1: 5106; call: inactive
CG12107 [DRSC06102] → E2F firefly, rep 1: 3433; Renilla normaliser, rep 1: 204; call: inactive
CG7220 [DRSC05235] → E2F firefly, rep 1: 1.36e5; Renilla normaliser, rep 1: 5374; call: inactive
CG7220 [DRSC07018] → E2F firefly, rep 1: 1.55e5; Renilla normaliser, rep 1: 5735; call: inactive
lwr [DRSC00828] → E2F firefly, rep 1: 99135; Renilla normaliser, rep 1: 3818; call: inactive
haf [DRSC00381] → E2F firefly, rep 1: 1.73e5; Renilla normaliser, rep 1: 5908; call: inactive
